Data as given in PubChem BioAssay AID1259308 (NCATS, 2017).

- Screen: 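Genes whose loss raises luciferase production in HEK293 cells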 (primary screen)
- Cells: human HEK293 embryonic kidney cells stably expressing firefly luciferase (HEK-CMV-Luc2-Hygro)
- Reagents: single siRNA against human genes, 0.8 pmol siRNA per well
- Timing: 72 h
- Read-out: 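Reporter luminescence and viable-cell signal on separate replicate plates, given as percent of non-targeting control and median/MAD z-scores, plus per-cell luciferase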
- Scale: total luciferase, z-score and total luciferase, % of control: higher = more reporter protein produced; luciferase per cell, z-score: higher = more reporter output per viable cell; viable cells, % of control: higher = more viable cells
- Call rule: 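Active when the median/MAD z-score for overall luciferase is greater than 3; a gene was taken forward for validation with new siRNAs if at least two of its three siRNAs passed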
- Calls: active = raised luciferase; inactive = no rise
Here is one part, drawn at random, of about 59,000 reagents tested. In the full data, about 1,510 (2.6%) got an active call. 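Calls use total luciferase alone and ignore viability, so some active siRNAs may act by altering cell number.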 The numbers tell different reagents against one gene apart. Reagent sequences are not shown.

target,reagent,"total luciferase, z-score","total luciferase, % of control","luciferase per cell, z-score","viable cells, % of control",call
OSBP2,1,3.42,150,3.15,73,active
OSBP2,2,0.75,96.8,0.559,93.3,inactive
OSBP2,3,0.784,97.5,0.966,84.5,inactive
LOC339902,1,2.37,129,2.56,73.5,inactive
LOC339902,2,0.94,101,0.503,98.5,inactive
LOC339902,3,-0.716,67.6,-0.74,91.9,inactive
SRBD1,1,0.987,102,0.367,103,inactive
SRBD1,2,-1.08,60.5,-1.46,99.4,inactive
SRBD1,3,0.0425,82.7,-0.166,96.6,inactive
ANKDD1A,1,-0.605,69.9,0.398,70.3,inactive
ANKDD1A,2,0.751,96.8,1.09,81.3,inactive
ANKDD1A,3,1.61,114,2.09,73.3,inactive
EIF3K,1,1.07,103,3.08,51.2,inactive
EIF3K,2,0.825,98.3,0.781,89.4,inactive
EIF3K,3,-0.291,76.1,-0.337,92.9,inactive
RNF24,1,-0.714,67.7,-1.02,98.9,inactive
RNF24,2,-0.675,68.5,-1.22,105,inactive
RNF24,3,-0.78,66.4,-0.263,79.5,inactive
GLO1,1,-0.332,75.3,-0.614,98.9,inactive
GLO1,2,-1.33,55.4,-1.43,90.3,inactive
GLO1,3,0.567,93.2,0.73,85.9,inactive
REL,1,-0.402,73.9,-0.566,95.8,inactive
REL,2,0.425,90.3,-0.285,109,inactive
REL,3,-0.402,73.9,-0.631,97.5,inactive
RNF31,1,-0.811,65.8,-0.995,95.5,inactive
RNF31,2,-0.572,70.5,-0.38,87.1,inactive
RNF31,3,-1.08,60.5,-1.41,98,inactive
TNRC6A,1,0.0345,82.6,0.0095,92,inactive
TNRC6A,2,-0.0175,81.5,0.068,89.5,inactive
TNRC6A,3,-0.213,77.6,-0.254,92.8,inactive
ZNF260,1,-0.373,74.5,0.35,75.9,inactive
ZNF260,2,-0.687,68.2,-0.839,95.1,inactive
ZNF260,3,-0.853,64.9,-1.34,103,inactive
ORMDL1,1,0.461,91.1,0.472,89.9,inactive
ORMDL1,2,0.553,92.9,0.739,85.5,inactive
ORMDL1,3,0.219,86.2,-0.492,110,inactive
MCM3,1,-0.573,70.5,-1.09,105,inactive
MCM3,2,0.563,93.1,-0.23,111,inactive
MCM3,3,3.81,158,3.85,63.9,active
BMPER,1,0.289,87.6,1.14,72.5,inactive
BMPER,2,0.372,89.3,0.264,93.1,inactive
BMPER,3,-2.36,35,-2.35,72.7,inactive
CFAP299,1,-0.088,80.1,0.246,83.9,inactive
CFAP299,2,0.421,90.3,1.25,72.6,inactive
CFAP299,3,0.247,86.8,-0.232,103,inactive
VWA3B,1,2.35,129,2.71,70.4,inactive
VWA3B,2,-0.558,70.8,-0.87,99.5,inactive
VWA3B,3,-1.04,61.3,-0.494,78,inactive
MPHOSPH8,1,1.61,114,1.29,90.5,inactive
MPHOSPH8,2,1.5,112,1.73,79.2,inactive
MPHOSPH8,3,1.68,115,0.518,112,inactive
CNOT12,1,0.382,89.5,1.62,65.2,inactive
CNOT12,2,-0.581,70.3,-0.625,92.7,inactive
CNOT12,3,1.23,106,0.552,103,inactive
THBS1,1,0.611,94,0.169,101,inactive
THBS1,2,-1.02,61.5,-1.16,93.3,inactive
THBS1,3,-1.01,61.9,-0.864,86.8,inactive
MCL1,1,0.251,86.9,-0.0574,98.6,inactive
MCL1,2,-0.12,79.5,-0.473,101,inactive
MCL1,3,-0.885,64.3,-1.19,98.2,inactive
SEC14L2,1,0.439,90.6,0.464,89.6,inactive
SEC14L2,2,1.91,120,0.998,103,inactive
SEC14L2,3,-0.537,71.2,-0.841,99.3,inactive
RLF,1,0.33,88.5,-0.335,108,inactive
RLF,2,1.62,114,1.14,94.5,inactive
RLF,3,0.188,85.6,0.172,91.4,inactive
CCDC8,1,-0.753,66.9,-0.95,96,inactive
CCDC8,2,0.74,96.6,1.13,80.2,inactive
CCDC8,3,2.2,126,1.38,97.6,inactive
DUSP22,1,1.85,119,1.87,81,inactive
DUSP22,2,0.414,90.1,0.0164,100,inactive
DUSP22,3,-0.433,73.3,-0.683,98,inactive
MTFR1L,1,-1.28,56.5,-1.36,90.3,inactive
MTFR1L,2,0.206,86,-0.189,101,inactive
MTFR1L,3,-0.959,62.8,-0.927,89.6,inactive

12 entries from above in another layout:
| target | reagent | total luciferase, z-score | total luciferase, % of control | luciferase per cell, z-score | viable cells, % of control | call |
| --- | --- | --- | --- | --- | --- | --- |
| OSBP2 | 3 | 0.784 | 97.5 | 0.966 | 84.5 | inactive |
| LOC339902 | 1 | 2.37 | 129 | 2.56 | 73.5 | inactive |
| LOC339902 | 2 | 0.94 | 101 | 0.503 | 98.5 | inactive |
| LOC339902 | 3 | -0.716 | 67.6 | -0.74 | 91.9 | inactive |
| SRBD1 | 1 | 0.987 | 102 | 0.367 | 103 | inactive |
| SRBD1 | 2 | -1.08 | 60.5 | -1.46 | 99.4 | inactive |
| SRBD1 | 3 | 0.0425 | 82.7 | -0.166 | 96.6 | inactive |
| ANKDD1A | 1 | -0.605 | 69.9 | 0.398 | 70.3 | inactive |
| ANKDD1A | 2 | 0.751 | 96.8 | 1.09 | 81.3 | inactive |
| ANKDD1A | 3 | 1.61 | 114 | 2.09 | 73.3 | inactive |
| EIF3K | 1 | 1.07 | 103 | 3.08 | 51.2 | inactive |
| EIF3K | 2 | 0.825 | 98.3 | 0.781 | 89.4 | inactive |
